This passage reports log2 fold change results from the supplement of paper PMC12819154, “High-throughput peptide-centric local stability assay extends protein–ligand identification to membrane proteins, tissues and bacteria” (Nature Structural & Molecular Biology, 2025).

The chains behind the UniProt entries cited, without tags or fusion partners. Where a name states a change or a piece, a line headed by the entry shows the natural chain unless it says otherwise.
UniProt Q9HCD6: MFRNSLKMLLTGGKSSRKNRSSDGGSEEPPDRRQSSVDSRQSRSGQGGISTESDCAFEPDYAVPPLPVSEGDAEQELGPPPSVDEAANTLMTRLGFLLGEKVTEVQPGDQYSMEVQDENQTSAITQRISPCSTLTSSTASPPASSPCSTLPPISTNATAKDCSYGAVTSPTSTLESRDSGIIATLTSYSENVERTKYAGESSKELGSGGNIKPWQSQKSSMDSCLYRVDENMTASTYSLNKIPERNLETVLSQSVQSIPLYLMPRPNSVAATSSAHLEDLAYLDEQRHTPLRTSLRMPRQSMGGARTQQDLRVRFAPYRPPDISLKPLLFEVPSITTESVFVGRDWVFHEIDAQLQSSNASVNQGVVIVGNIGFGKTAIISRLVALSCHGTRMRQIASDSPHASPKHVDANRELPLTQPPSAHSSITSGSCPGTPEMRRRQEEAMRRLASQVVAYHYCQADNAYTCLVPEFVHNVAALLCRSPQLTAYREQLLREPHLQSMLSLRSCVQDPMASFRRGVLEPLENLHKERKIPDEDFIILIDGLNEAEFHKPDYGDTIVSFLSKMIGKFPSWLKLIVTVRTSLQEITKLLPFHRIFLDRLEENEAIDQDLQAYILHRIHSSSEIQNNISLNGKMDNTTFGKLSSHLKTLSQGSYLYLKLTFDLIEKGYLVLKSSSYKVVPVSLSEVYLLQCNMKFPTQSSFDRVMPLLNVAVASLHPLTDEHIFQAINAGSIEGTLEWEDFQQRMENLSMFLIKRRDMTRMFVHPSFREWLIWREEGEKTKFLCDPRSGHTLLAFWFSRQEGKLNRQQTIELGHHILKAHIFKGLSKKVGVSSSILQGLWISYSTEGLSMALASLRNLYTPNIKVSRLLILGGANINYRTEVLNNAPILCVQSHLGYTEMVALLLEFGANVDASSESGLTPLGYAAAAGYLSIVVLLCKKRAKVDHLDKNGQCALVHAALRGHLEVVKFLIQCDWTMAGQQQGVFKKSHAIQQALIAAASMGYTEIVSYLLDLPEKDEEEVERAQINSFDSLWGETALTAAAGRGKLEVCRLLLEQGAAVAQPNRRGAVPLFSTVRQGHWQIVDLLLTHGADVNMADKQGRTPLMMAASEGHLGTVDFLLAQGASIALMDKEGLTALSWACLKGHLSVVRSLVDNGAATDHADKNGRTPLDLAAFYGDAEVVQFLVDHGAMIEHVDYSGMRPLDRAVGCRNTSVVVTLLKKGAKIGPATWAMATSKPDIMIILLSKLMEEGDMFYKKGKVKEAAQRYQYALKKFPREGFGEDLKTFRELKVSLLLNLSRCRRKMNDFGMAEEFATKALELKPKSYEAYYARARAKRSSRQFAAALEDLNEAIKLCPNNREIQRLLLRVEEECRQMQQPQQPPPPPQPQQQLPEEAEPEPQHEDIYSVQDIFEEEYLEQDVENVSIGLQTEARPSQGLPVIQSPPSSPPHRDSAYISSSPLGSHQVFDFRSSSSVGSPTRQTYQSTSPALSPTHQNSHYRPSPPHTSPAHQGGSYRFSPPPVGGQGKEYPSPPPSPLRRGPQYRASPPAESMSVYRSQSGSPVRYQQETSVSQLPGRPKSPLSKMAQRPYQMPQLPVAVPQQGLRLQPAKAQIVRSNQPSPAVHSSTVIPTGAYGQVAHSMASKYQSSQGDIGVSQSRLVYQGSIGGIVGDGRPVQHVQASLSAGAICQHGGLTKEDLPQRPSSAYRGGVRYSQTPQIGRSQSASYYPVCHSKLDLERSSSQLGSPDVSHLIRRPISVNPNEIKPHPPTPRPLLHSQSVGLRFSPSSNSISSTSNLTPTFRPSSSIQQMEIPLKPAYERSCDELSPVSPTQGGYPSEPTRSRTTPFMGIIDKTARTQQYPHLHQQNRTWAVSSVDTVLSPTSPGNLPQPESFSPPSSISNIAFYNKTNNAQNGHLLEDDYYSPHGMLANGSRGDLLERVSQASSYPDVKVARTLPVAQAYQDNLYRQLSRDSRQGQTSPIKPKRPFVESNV
UniProt Q9H2G9: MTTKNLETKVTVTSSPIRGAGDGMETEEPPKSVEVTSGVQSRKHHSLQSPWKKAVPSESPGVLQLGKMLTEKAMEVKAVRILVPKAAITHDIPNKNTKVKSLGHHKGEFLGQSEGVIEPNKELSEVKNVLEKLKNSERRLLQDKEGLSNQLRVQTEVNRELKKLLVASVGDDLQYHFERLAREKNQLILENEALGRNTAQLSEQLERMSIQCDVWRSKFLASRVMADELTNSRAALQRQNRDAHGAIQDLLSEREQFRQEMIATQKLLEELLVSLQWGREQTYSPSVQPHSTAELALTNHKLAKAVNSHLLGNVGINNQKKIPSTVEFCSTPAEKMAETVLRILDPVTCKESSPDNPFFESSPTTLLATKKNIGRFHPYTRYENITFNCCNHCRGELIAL
UniProt Q9HCG8: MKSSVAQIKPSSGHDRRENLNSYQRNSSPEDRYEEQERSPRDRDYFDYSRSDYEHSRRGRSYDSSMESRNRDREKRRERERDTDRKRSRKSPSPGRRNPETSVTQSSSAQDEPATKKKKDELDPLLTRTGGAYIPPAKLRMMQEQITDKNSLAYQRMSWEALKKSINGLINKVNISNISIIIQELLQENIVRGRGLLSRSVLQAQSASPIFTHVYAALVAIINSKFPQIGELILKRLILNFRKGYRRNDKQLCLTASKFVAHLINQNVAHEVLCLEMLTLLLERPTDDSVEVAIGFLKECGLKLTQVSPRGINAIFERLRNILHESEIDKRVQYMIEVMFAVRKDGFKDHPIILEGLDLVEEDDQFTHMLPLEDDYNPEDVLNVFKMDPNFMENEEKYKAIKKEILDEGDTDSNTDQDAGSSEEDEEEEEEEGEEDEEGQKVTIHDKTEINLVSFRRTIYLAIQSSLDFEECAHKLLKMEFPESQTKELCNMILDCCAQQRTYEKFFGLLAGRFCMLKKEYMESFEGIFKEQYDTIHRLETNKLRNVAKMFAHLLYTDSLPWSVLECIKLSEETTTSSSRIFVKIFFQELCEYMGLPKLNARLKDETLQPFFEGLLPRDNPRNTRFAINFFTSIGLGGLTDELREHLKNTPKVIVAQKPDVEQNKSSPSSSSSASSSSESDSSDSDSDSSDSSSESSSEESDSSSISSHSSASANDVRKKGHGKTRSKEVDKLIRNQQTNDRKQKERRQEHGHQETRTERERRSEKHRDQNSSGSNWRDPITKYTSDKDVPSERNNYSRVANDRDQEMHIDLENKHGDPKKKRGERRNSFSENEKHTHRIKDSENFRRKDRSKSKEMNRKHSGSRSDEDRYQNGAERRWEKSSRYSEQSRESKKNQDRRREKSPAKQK
UniProt Q9H4A5: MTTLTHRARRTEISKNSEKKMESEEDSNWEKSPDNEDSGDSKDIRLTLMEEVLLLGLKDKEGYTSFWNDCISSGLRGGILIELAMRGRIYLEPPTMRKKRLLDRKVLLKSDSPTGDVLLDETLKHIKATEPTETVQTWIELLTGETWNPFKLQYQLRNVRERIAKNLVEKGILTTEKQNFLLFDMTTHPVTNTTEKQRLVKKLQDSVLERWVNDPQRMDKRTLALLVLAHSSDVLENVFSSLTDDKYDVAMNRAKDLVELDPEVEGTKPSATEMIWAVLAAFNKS
UniProt Q9H9T3: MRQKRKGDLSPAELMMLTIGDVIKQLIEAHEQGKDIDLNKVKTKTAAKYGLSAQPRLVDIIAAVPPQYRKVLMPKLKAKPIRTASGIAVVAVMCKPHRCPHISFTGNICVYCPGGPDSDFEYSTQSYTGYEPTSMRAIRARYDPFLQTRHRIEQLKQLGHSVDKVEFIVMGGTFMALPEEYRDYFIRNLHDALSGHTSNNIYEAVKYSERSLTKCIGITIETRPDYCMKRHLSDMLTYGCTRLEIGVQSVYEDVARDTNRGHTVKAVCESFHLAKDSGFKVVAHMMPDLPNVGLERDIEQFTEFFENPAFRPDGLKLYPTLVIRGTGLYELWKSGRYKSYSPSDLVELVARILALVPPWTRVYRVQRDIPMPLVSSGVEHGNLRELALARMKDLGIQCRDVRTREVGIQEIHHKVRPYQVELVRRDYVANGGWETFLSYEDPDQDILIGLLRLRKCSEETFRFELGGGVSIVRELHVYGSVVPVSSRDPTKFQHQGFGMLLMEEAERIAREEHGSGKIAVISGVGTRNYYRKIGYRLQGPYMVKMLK
UniProt Q9H773: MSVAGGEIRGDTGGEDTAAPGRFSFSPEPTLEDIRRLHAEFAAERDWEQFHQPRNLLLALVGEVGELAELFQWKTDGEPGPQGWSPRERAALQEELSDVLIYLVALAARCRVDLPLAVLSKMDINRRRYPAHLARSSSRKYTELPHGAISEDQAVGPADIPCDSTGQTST
UniProt Q9H1J1: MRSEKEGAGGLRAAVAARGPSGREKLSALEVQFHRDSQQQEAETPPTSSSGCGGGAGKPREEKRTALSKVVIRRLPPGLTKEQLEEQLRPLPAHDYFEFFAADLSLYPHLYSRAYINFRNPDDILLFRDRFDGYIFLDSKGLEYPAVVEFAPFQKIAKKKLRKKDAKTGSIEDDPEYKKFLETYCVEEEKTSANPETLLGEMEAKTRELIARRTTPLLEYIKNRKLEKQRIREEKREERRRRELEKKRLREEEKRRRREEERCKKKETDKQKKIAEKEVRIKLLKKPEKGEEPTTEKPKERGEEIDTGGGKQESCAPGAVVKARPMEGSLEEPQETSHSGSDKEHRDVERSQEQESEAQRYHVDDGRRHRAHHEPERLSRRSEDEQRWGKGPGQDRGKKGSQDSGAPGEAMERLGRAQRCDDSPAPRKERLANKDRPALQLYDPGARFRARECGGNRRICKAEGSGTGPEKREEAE
UniProt Q9H6Q4: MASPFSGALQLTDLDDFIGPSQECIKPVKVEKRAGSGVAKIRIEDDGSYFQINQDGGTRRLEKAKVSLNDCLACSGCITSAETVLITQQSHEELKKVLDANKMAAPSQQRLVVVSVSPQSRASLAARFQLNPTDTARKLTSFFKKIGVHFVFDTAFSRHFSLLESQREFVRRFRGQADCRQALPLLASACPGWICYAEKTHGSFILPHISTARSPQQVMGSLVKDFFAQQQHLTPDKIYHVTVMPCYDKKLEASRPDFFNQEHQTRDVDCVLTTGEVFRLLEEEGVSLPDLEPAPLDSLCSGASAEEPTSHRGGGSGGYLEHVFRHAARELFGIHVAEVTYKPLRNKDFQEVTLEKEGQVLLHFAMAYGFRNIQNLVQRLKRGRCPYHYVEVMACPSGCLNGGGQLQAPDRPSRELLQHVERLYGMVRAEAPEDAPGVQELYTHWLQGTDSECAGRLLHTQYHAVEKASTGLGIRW
UniProt Q9H4A4: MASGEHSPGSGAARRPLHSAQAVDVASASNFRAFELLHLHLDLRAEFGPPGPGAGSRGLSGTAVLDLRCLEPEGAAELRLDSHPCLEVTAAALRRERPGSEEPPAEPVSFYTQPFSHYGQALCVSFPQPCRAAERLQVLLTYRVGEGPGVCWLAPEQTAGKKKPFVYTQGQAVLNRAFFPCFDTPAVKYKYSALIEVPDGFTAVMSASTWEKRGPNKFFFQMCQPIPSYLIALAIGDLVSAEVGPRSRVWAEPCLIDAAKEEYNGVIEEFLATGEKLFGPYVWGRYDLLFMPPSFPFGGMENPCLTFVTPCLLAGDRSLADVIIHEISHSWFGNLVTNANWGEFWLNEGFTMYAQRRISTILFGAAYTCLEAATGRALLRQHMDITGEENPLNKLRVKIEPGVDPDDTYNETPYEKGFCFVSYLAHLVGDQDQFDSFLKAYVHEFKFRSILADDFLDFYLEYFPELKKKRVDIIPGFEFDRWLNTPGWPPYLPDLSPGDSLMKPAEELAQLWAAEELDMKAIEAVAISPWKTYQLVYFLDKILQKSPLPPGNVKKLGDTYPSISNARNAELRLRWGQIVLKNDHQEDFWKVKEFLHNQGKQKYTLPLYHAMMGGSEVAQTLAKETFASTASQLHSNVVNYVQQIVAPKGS
UniProt Q9H3Q1: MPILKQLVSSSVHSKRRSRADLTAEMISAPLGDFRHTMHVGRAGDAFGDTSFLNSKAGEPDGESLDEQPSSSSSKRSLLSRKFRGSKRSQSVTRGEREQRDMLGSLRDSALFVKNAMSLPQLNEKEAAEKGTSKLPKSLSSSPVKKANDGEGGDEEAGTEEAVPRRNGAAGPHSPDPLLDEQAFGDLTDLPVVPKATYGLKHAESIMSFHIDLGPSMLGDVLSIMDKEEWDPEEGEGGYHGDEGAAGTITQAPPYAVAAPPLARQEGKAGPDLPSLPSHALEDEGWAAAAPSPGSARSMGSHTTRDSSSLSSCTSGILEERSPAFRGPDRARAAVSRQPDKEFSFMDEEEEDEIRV

This is one part of the list. Most entries show no effect beyond the scatter of the controls.

Compound in this test: Cc1nc(Nc2ncc(C(=O)Nc3c(C)cccc3Cl)s2)cc(N2CCN(CCO)CC2)n1 [dasatinib]
Nature of the test: log2 fold change of tryptic peptide abundance, ligand vs vehicle (limited proteolysis) (log2 ratio); higher = more trypsin-susceptible (destabilized). The note with it: ligand concentration: 5 uM; sample: K562 cleared lysate.
With “TANC2 (peptide sequence: YSQTPQIGR, peptide start residue: 1711) (UniProt Q9HCD6)”, the log2 fold change was 0.463.

In the case of “UCK1 (peptide sequence: VVILSQDR, peptide start residue: 59) (UniProt Q9HA47)”, the log2 fold change worked out at 0.299.

As to “BLZF1 (peptide sequence: KIPSTVEFCSTPAEK, peptide start residue: 321) (UniProt Q9H2G9)”, the log2 fold change is -0.327.

In the case of “CWC22 (peptide sequence: NSFSENEK, peptide start residue: 828) (UniProt Q9HCG8)”, the log2 fold change worked out at 0.136.

For the target “GOLPH3L (peptide sequence: KLQDSVLER, peptide start residue: 202) (UniProt Q9H4A5)”, the log2 fold change was 0.14.

Regarding “TFB2M (peptide sequence: SKDCAYK, peptide start residue: 380) (UniProt Q9H5Q4)”, the log2 fold change was -0.368.

“ELP3 (peptide sequence: HLSDMLTYGCTR, peptide start residue: 231) (UniProt Q9H9T3)”: the log2 fold change was -0.487.

On to “ANKRA2 (peptide sequence: AECNIHTSPSPGIQVR, peptide start residue: 97) (UniProt Q9H9E1)”, for which the log2 fold change was determined as 0.0391.

Regarding “UniProt Q9H773 (peptide sequence: CRVDLPLAVLSK, peptide start residue: 110)”, the log2 fold change was -0.16.

Take “UniProt Q9H871 (peptide sequence: CWYHSIFACPILR, peptide start residue: 328)”: the log2 fold change was -0.165.

In the case of “PPP1R3E (peptide sequence: FADALGLELAVVRR, peptide start residue: 90) (UniProt Q9H7J1)”, the log2 fold change is -0.52.

With “SPC25 (peptide sequence: KTNNFSAFLANVRK, peptide start residue: 203) (UniProt Q9HBM1)”, the log2 fold change turned out to be 0.194.

In the case of “CXorf56 (peptide sequence: RLQELAELEAKK, peptide start residue: 198) (UniProt Q9H5V9)”, the log2 fold change was -0.576.

As to “UniProt Q9H5K3 (peptide sequence: VGEGAVK, peptide start residue: 87)”, the log2 fold change is -0.207.

For “NT5DC2 (peptide sequence: DILIEHYK, peptide start residue: 95) (UniProt Q9H857)”, the log2 fold change is 0.359.

In the case of “SCAF1 (peptide sequence: ALDGGDRDR, peptide start residue: 772) (UniProt Q9H7N4)”, the log2 fold change was -0.741.

With “XPO5 (peptide sequence: FFSTLYENCFHILGK, peptide start residue: 839) (UniProt Q9HAV4)”, the log2 fold change was determined as 0.0828.

Turning to “TXNIP (peptide sequence: HTYLANGQTK, peptide start residue: 219) (UniProt Q9H3M7)”, the log2 fold change was -0.0805.

On to “SLC12A5 (peptide sequence: HLPGEDVK, peptide start residue: 33) (UniProt Q9H2X9)”, for which the log2 fold change was 0.0347.

As to “WDR41 (peptide sequence: WLIGGGREPQGLAEK, peptide start residue: 4) (UniProt Q9HAD4)”, the log2 fold change is -0.417.

Turning to “TTC12 (peptide sequence: MDADKEKDLQK, peptide start residue: 1) (UniProt Q9H892)”, the log2 fold change is -0.227.

As for “UPF3A (peptide sequence: KGSQDSGAPGEAMER, peptide start residue: 399) (UniProt Q9H1J1)”, the log2 fold change is -0.411.

Regarding “C17orf75 (peptide sequence: IVKVEHEEMPEAK, peptide start residue: 366) (UniProt Q9HAS0)”, the log2 fold change was -0.293.

Turning to “UniProt Q9H6Q4 (peptide sequence: LLHTQYHAVEK, peptide start residue: 457)”, the log2 fold change was found to be 0.342.

Regarding “SUDS3 (peptide sequence: RKPAPAQLNYLLTDEQIMEDLR, peptide start residue: 200) (UniProt Q9H7L9)”, the log2 fold change is -0.0793.

As for “EPC1 (peptide sequence: AVTILEMIK, peptide start residue: 244) (UniProt Q9H2F5)”, the log2 fold change is 0.555.

Turning to “SENP2 (peptide sequence: TKGWGEEQNHGVK, peptide start residue: 252) (UniProt Q9HC62)”, the log2 fold change was found to be 0.273.

“RWDD1 (peptide sequence: MKEEEQAGK, peptide start residue: 170) (UniProt Q9H446)”: the log2 fold change amounted to 0.0693.

In the case of “RNPEP (peptide sequence: ASGEHSPGSGAAR, peptide start residue: 2) (UniProt Q9H4A4)”, the log2 fold change was found to be 0.0774.

Turning to “SLK (peptide sequence: QTLDALNYLHDNK, peptide start residue: 138) (UniProt Q9H2G2)”, the log2 fold change is -0.219.

Take “CDC42EP4 (peptide sequence: SMGSHTTR, peptide start residue: 298) (UniProt Q9H3Q1)”: the log2 fold change is -0.294.

In the case of “YY1AP1 (peptide sequence: EVHQTLILDPAQR, peptide start residue: 153) (UniProt Q9H869)”, the log2 fold change amounted to 0.304.

In the case of “UniProt Q9H3N1 (peptide sequence: LLSESAQPLK, peptide start residue: 224)”, the log2 fold change stood at 0.14.

As for “BRD9 (peptide sequence: VEVEPPPDRPVR, peptide start residue: 116) (UniProt Q9H8M2)”, the log2 fold change is -0.74.

With “GLOD4 (peptide sequence: ALLGYADNQCK, peptide start residue: 188) (UniProt Q9HC38)”, the log2 fold change was -0.207.

Take “WDR13 (peptide sequence: TTLDRMEDFEDDPR, peptide start residue: 88) (UniProt Q9H1Z4)”: the log2 fold change is -0.479.

As to “DPH5 (peptide sequence: QNGMHTLCLLDIK, peptide start residue: 154) (UniProt Q9H2P9)”, the log2 fold change was -0.804.
